The values below come from the supplement of paper PMC8728848.

Holding throughout (assay): glycan array binding signal (z-score within array); higher = stronger binding
Holding throughout (details): glycan notation: IUPAC condensed, linker removed

For assay [1], the target named is Gal(b1-4)GlcNAc(b1-3)Gal(b1-4)GlcNAc(b1-3)Gal(b1-4)GlcNAc(b1-3)Gal(b1-4)GlcNAc(b1-2)Man(a1-3)[Gal(b1-4)GlcNAc(b1-3)Gal(b1-4)GlcNAc(b1-3)Gal(b1-4)GlcNAc(b1-3)Gal(b1-4)GlcNAc(b1-2)Man(a1-6)]Man(b1-4)GlcNAc(b1-4)[Fuc(a1-6)]GlcNAc. A digest of the protocol:
(§1)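 The Consortium for Functional Glycomics database supplied 3228 glycan arrays, of which those lacking an available protein sequence were dropped. The binding signal, a within-array Z-score, was averaged across arrays of the same protein sequence and across linkers. Negative scores can be read as non-binding.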

Assay [2] concerns the target Gal(b1-4)GlcNAc(b1-3)Gal(b1-4)GlcNAc(b1-3)Gal(b1-4)GlcNAc(b1-3)Gal(b1-4)GlcNAc(b1-2)[Gal(b1-4)GlcNAc(b1-3)Gal(b1-4)GlcNAc(b1-3)Gal(b1-4)GlcNAc(b1-3)Gal(b1-4)GlcNAc(b1-6)]Man(a1-6)[Gal(b1-4)GlcNAc(b1-3)Gal(b1-4)GlcNAc(b1-3)Gal(b1-4)GlcNAc(b1-3)Gal(b1-4)GlcNAc(b1-2)Man(a1-3)]Man(b1-4)GlcNAc(b1-4)[Fuc(a1-6)]GlcNAc. A digest of the protocol:
as §1

In assay [3] the target is Gal(b1-4)GlcNAc(b1-3)Gal(b1-4)GlcNAc(b1-3)Gal(b1-4)GlcNAc(b1-3)Gal(b1-4)GlcNAc(b1-3)Gal(b1-4)GlcNAc(b1-2)Man(a1-3)[Gal(b1-4)GlcNAc(b1-3)Gal(b1-4)GlcNAc(b1-3)Gal(b1-4)GlcNAc(b1-3)Gal(b1-4)GlcNAc(b1-3)Gal(b1-4)GlcNAc(b1-2)Man(a1-6)]Man(b1-4)GlcNAc(b1-4)GlcNAc. In outline: as §1
For assay [4], the target named is Gal(b1-4)GlcNAc(b1-3)Gal(b1-4)GlcNAc(b1-3)Gal(b1-4)GlcNAc(b1-3)Gal(b1-4)GlcNAc(b1-3)Gal(b1-4)GlcNAc(b1-2)Man(a1-3)[Gal(b1-4)GlcNAc(b1-3)Gal(b1-4)GlcNAc(b1-3)Gal(b1-4)GlcNAc(b1-3)Gal(b1-4)GlcNAc(b1-3)Gal(b1-4)GlcNAc(b1-2)Man(a1-6)]Man(b1-4)GlcNAc(b1-4)[Fuc(a1-6)]GlcNAc. In outline: as §1
The target in assay [5] is Gal(b1-4)GlcNAc(b1-3)Gal(b1-4)GlcNAc(b1-3)Gal(b1-4)GlcNAc(b1-3)Gal(b1-4)GlcNAc(b1-3)Gal(b1-4)GlcNAc(b1-2)[Gal(b1-4)GlcNAc(b1-3)Gal(b1-4)GlcNAc(b1-3)Gal(b1-4)GlcNAc(b1-3)Gal(b1-4)GlcNAc(b1-3)Gal(b1-4)GlcNAc(b1-6)]Man(a1-6)[Gal(b1-4)GlcNAc(b1-3)Gal(b1-4)GlcNAc(b1-3)Gal(b1-4)GlcNAc(b1-3)Gal(b1-4)GlcNAc(b1-3)Gal(b1-4)GlcNAc(b1-2)Man(a1-3)]Man(b1-4)GlcNAc(b1-4)[Fuc(a1-6)]GlcNAc. A digest of the protocol: as §1

For assay [6], the target named is Gal(b1-4)GlcNAc(b1-3)Gal(b1-4)GlcNAc(b1-3)Gal(b1-4)GlcNAc(b1-3)Gal(b1-4)GlcNAc(b1-3)Gal(b1-4)GlcNAc(b1-3)Gal(b1-4)GlcNAc(b1-2)Man(a1-3)[Gal(b1-4)GlcNAc(b1-3)Gal(b1-4)GlcNAc(b1-3)Gal(b1-4)GlcNAc(b1-3)Gal(b1-4)GlcNAc(b1-3)Gal(b1-4)GlcNAc(b1-3)Gal(b1-4)GlcNAc(b1-2)Man(a1-6)]Man(b1-4)GlcNAc(b1-4)GlcNAc. A digest of the protocol:
as §1

Assay [7] concerns the target Gal(b1-4)GlcNAc(b1-3)Gal(b1-4)GlcNAc(b1-3)GalNAc. A digest of the protocol: as §1
The target of assay [8] is Gal(b1-4)GlcNAc(b1-3)Gal(b1-4)GlcNAc(b1-3)[Gal(b1-4)GlcNAc(b1-3)Gal(b1-4)GlcNAc(b1-6)]GalNAc. A digest of the protocol: as §1
In assay [9] the target is Gal(b1-4)GlcNAc(b1-3)Gal(b1-4)GlcNAc(b1-6)[Gal(b1-3)]GalNAc. In outline: as §1
For assay [10], the target named is Gal(b1-4)GlcNAc(b1-3)Gal(b1-4)[Fuc(a1-3)]GlcNAc(b1-3)Gal(b1-4)[Fuc(a1-3)]GlcNAc. In outline: as §1
Assay [11] has as its target Gal(b1-4)GlcNAc(b1-3)GalNAc. In outline:
as §1

Assay [12] addresses Gal(b1-4)GlcNAc(b1-3)[Fuc(a1-3)GlcNAc(b1-6)]Gal(b1-4)Glc. In outline:
as §1

Assay [13] has as its target Gal(b1-4)GlcNAc(b1-3)[Gal(b1-4)GlcNAc(b1-6)]Gal(b1-4)GlcNAc. In outline: as §1
Assay [14] deals with Gal(b1-4)GlcNAc(b1-3)[GlcNAc(b1-6)]Gal(b1-4)GlcNAc. In outline:
as §1

Assay [15] addresses Gal(b1-4)GlcNAc(b1-6)Gal(b1-4)GlcNAc. A digest of the protocol: as §1
Assay [16] concerns the target Gal(b1-4)GlcNAc(b1-6)GalNAc. A digest of the protocol:
as §1

Assay [17] deals with Gal(b1-4)GlcNAc(b1-6)[Gal(b1-3)]GalNAc. In outline: as §1
Assay [18] addresses Gal(b1-4)GlcNAc(b1-6)[Gal(b1-4)GlcNAc(b1-3)]GalNAc. In outline:
as §1

Another assay addresses Gal(b1-4)GlcNAc6P. A digest of the protocol: as §1
The target in the next assay is Gal(b1-6)Gal. In outline: as §1
The target of a further assay is Gal3S(b1-3)GalNAc. A digest of the protocol:
as §1

For a further assay, the target named is Gal3S(b1-3)GlcNAc. A digest of the protocol: as §1
In assay [19] the target is Gal3S(b1-3)[Fuc(a1-4)]GlcNAc. In outline:
as §1

The list shows a part of the results.

B1: SJCP3842 (Schistosoma japonicum) (protein)
chain: MFKMRIINLVNISTVLLLINLLQTKSRLVGKENGFMLTVSIYGAQLSDKMTSVPVSWTIDYEDPEKSAFKKLVTDSCDTFSEYVKSQIPKGSVDGQCTSHIFQRPGSGSGVSISLTLSFIYVDVTQPDTVALKTELEKHFANFVTIHSHKITQAQFRINQKAIVIPTGDKDAIDGSKWKIIAIIALVALAIVVIGGFIYICVK
In the case of B1, the “glycan array binding signal (z-score)” value is 0.938 in assay [1]; -0.057 in assay [2]; 0.937 in assay [3]; -0.251 in [4]; 0.053 in assay [5]; -0.925 in [6]. Also, the “glycan array binding signal (z-score)” value in assay [7] is 1.75; in assay [8], 2.35; in assay [9], -0.509; in assay [10] it was -0.867; in assay [11] it was -0.741; in assay [12] it was 0.621. Besides, the “glycan array binding signal (z-score)” value in [13] is 0.205; in assay [14] it was -0.532; in assay [15] it was 0.826; in [16], -0.403; in assay [17], 0.5; in assay [18], -0.835. For the same molecule, the “glycan array binding signal (z-score)” value was 0.199 in the assay with Gal(b1-4)GlcNAc6P; 1.78 in the assay with Gal(b1-6)Gal; 0.1 with Gal3S(b1-3)GalNAc; -0.363 in the assay with Gal3S(b1-3)GlcNAc; 0.16 in [19].
